No constants are given. Whether binding was seen depends on the method and setting. Where a sequence is shown, tags or fusion partners need not be part of it.
Tests used:
Test in all cases: pull-down
CBP-Upf1-HD-Ct = target: T1, CBP-Upf1-HD-Ct (S. cerevisiae, UniProt P30771 221-971)
T1 sequence (looked up): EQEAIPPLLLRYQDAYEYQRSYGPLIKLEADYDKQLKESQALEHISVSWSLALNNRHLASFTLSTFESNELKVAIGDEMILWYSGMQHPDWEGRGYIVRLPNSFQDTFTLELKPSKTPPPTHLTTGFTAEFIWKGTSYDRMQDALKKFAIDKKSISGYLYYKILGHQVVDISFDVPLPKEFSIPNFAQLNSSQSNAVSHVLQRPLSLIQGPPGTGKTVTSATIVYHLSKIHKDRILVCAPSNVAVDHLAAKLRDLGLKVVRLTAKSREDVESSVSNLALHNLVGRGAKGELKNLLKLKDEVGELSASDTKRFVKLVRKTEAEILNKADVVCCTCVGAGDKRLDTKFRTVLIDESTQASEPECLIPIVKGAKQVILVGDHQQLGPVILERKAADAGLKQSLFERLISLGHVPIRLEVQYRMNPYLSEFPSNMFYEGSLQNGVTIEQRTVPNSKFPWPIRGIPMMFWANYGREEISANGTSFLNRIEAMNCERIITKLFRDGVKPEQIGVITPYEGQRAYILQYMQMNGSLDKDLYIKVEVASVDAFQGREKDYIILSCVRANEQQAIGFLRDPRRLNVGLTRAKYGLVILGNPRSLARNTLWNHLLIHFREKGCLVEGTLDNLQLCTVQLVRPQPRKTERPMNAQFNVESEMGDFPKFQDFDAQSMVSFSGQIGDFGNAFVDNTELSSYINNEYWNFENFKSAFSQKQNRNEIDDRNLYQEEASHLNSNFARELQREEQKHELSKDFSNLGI

CBP-Upf1-HD = target: T2, CBP-Upf1-HD (S. cerevisiae, UniProt P30771 221-851)
T2 sequence (looked up): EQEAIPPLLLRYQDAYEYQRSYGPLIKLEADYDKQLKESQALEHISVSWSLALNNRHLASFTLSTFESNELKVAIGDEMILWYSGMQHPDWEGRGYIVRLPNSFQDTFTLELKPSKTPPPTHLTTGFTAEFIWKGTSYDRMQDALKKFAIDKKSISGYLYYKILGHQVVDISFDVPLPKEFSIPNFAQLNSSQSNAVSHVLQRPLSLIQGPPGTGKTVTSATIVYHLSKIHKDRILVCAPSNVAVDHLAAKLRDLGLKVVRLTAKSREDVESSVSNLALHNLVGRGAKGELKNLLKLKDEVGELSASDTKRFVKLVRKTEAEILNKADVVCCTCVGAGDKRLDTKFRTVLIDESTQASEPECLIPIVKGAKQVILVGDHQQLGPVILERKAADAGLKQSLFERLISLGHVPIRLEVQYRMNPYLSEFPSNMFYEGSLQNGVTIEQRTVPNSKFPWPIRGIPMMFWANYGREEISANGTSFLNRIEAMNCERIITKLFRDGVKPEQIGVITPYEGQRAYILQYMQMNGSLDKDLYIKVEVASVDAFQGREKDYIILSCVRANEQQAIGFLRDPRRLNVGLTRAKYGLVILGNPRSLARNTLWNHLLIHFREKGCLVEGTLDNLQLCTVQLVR

[1] = target: T3, CBP-Upf1-Ct (S. cerevisiae) (UniProt P30771)
T3 sequence: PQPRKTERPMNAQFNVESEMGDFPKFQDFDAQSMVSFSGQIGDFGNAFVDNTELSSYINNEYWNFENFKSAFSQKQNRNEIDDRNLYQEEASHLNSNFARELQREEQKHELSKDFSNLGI

binding (CBP-Upf1-HD-Ct): no binding | binding (CBP-Upf1-HD): no binding | binding [1]: no binding
B1: GST-Dcp2-UBD (domain or fragment, S. cerevisiae, UniProt P53550 434-720, looked up)
chain: GYSSSSPGQLLDILNSKKPDSNVQSSKKPKLKILQRGTDLNSIKQNNNDETAHSNSQALLDLLKKPTSSQKIHASKPDTSFLPNDSVSGIQDAEYEDFESSSDEEVETARDERNSLNVDIGVNVMPSEKDSRRSQKEKPRNDASKTNLNASAESNSVEWGPGKSSPSTQSKQNSSVGMQNKYRQEIHIGDSDAYEVFESSSDEEDGKKLEELEQTQDNSKLISQDILKENNFQDGEVPHRDMPTESNKSINETVGLSSTTNTVKKVPKVKILKRGETFASLANDKKA
